Source: PubChem BioAssay AID1117269 (University of Michigan, 2014)
The whole screen tested 714 reagents; shown is a random part of them. Of all reagents, 49 (6.9%) were called active. 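Active means a hit in at least one line; per-line hit columns show which; some siRNA pools appear more than once.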 The record does not give: the amount of reagent.

Test: 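Kinome-wide knockdown screen for regulators of TGF-beta reporter output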 (primary screen)
Cells: human A549 lung cancer and 1833 breast cancer (MDA-MB-231-derived) cell lines carrying a stable BTR luciferase reporter
Knock-down reagent: siRNA pool against human genes
Time to read-out: 72 h after transfection, then 1 h TGF-beta before the read
Challenge: TGF-beta 10 ng/mL added one hour before luciferin and read-out
Measurement: 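Live-cell BTR luciferase signal at 72 h after transfection and 1 h of TGF-beta at 10 ng/mL, fold versus scrambled siRNA, triplicate mean for each line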
Reading the numbers: fold over scrambled siRNA, A549 and fold over scrambled siRNA, 1833: higher = more reporter light, weaker TGF-beta receptor signalling
Call rule: 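Hit in either line counts as active; per-line hits lie above an upper limit from quartiles of averaged log fold values, in plate and screen-wide analyses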
Calls: active = hit in at least one line; inactive = hit in neither line

| target | fold over scrambled siRNA, A549 | fold over scrambled siRNA, 1833 | hit in A549 | hit in 1833 | call |
| --- | --- | --- | --- | --- | --- |
| DLG1 (discs large MAGUK scaffold protein 1) | 1.19 | 1 | not a hit in A549 | not a hit in 1833 | inactive |
| FGR (FGR proto-oncogene, Src family tyrosine kinase) | 0.799 | 0.956 | not a hit in A549 | not a hit in 1833 | inactive |
| CSNK1G3 (casein kinase 1 gamma 3) | 3.81 | 10.5 | not a hit in A549 | hit in 1833 | – |
| PI4K2A (phosphatidylinositol 4-kinase type 2 alpha) | 5.45 | 21.4 | hit in A549 | hit in 1833 | active |
| BLK (BLK proto-oncogene, Src family tyrosine kinase) | 2.18 | 17.3 | not a hit in A549 | hit in 1833 | – |
| PRPS1L1 (phosphoribosyl pyrophosphate synthetase 1 like 1) | 1.57 | 1.44 | not a hit in A549 | not a hit in 1833 | inactive |
| EPHB3 (EPH receptor B3) | 1.29 | 3.81 | not a hit in A549 | not a hit in 1833 | inactive |
| MAP2K1 (mitogen-activated protein kinase kinase 1) | 0.762 | 1.48 | not a hit in A549 | not a hit in 1833 | inactive |
| MAP4K5 (mitogen-activated protein kinase kinase kinase kinase 5) | 3.57 | 6.29 | not a hit in A549 | not a hit in 1833 | inactive |
| RIPK3 (receptor interacting serine/threonine kinase 3) | 1.52 | 2.06 | not a hit in A549 | not a hit in 1833 | inactive |
| MARK1 (microtubule affinity regulating kinase 1) | 0.895 | 2.67 | not a hit in A549 | not a hit in 1833 | inactive |
| NME4 (NME/NM23 nucleoside diphosphate kinase 4) | 2.62 | 4.19 | not a hit in A549 | not a hit in 1833 | inactive |
| TJP2 (tight junction protein 2) | 1.63 | 2.12 | not a hit in A549 | not a hit in 1833 | inactive |
| DDR1 (discoidin domain receptor tyrosine kinase 1) | 3.23 | 1.22 | not a hit in A549 | not a hit in 1833 | inactive |
| PTK2B (protein tyrosine kinase 2 beta) | 1.35 | 1.47 | not a hit in A549 | not a hit in 1833 | inactive |
| EIF2AK1 (eukaryotic translation initiation factor 2 alpha kinase 1) | 3.92 | 6.38 | not a hit in A549 | not a hit in 1833 | inactive |
| PANK1 (pantothenate kinase 1) | 5.67 | 4.04 | hit in A549 | not a hit in 1833 | active |
| ULK2 (unc-51 like autophagy activating kinase 2) | 0.852 | 0.933 | not a hit in A549 | not a hit in 1833 | inactive |
| EPHA2 (EPH receptor A2) | 1.28 | 2.18 | not a hit in A549 | not a hit in 1833 | inactive |
| PSKH2 (protein serine kinase H2) | 2.43 | 2.05 | not a hit in A549 | not a hit in 1833 | inactive |
| CDK10 (cyclin dependent kinase 10) | 1.03 | 9.83 | not a hit in A549 | not a hit in 1833 | inactive |
| MARK3 (microtubule affinity regulating kinase 3) | 0.643 | 1.6 | not a hit in A549 | not a hit in 1833 | inactive |
| EEF2K (eukaryotic elongation factor 2 kinase) | 1.1 | 1.47 | not a hit in A549 | not a hit in 1833 | inactive |
| GUCY2C (guanylate cyclase 2C) | 18.2 | 1.96 | hit in A549 | not a hit in 1833 | active |
| EPHA5 (EPH receptor A5) | 2.43 | 2.67 | not a hit in A549 | not a hit in 1833 | inactive |
| EPHA8 (EPH receptor A8) | 3.52 | 6.13 | not a hit in A549 | not a hit in 1833 | inactive |
| AURKC (aurora kinase C) | 0.952 | 1.4 | not a hit in A549 | not a hit in 1833 | inactive |
| MELK (maternal embryonic leucine zipper kinase) | 0.683 | 1.74 | not a hit in A549 | not a hit in 1833 | inactive |
| FN3K (fructosamine 3 kinase) | 2.67 | 3.9 | not a hit in A549 | not a hit in 1833 | inactive |
| STK32A (serine/threonine kinase 32A) | 3.37 | 0.852 | not a hit in A549 | not a hit in 1833 | inactive |
| GNE | 2.06 | 4.3 | not a hit in A549 | not a hit in 1833 | inactive |
| PAPSS2 (3'-phosphoadenosine 5'-phosphosulfate synthase 2) | 2.96 | 1.6 | not a hit in A549 | not a hit in 1833 | inactive |
| IKBKG | 2.46 | 0.741 | not a hit in A549 | not a hit in 1833 | inactive |
| DYRK4 (dual specificity tyrosine phosphorylation regulated kinase 4) | 3.53 | 3.73 | not a hit in A549 | not a hit in 1833 | inactive |
| PI4KB (phosphatidylinositol 4-kinase beta) | 2.26 | 1.24 | not a hit in A549 | not a hit in 1833 | inactive |
| PKM (pyruvate kinase M1/2) | 3.9 | 7.11 | not a hit in A549 | not a hit in 1833 | inactive |
| EIF2AK3 (eukaryotic translation initiation factor 2 alpha kinase 3) | 3.44 | 2.78 | not a hit in A549 | not a hit in 1833 | inactive |
| STK31 (serine/threonine kinase 31) | 1.64 | 4.27 | not a hit in A549 | not a hit in 1833 | inactive |
| MAP2K5 (mitogen-activated protein kinase kinase 5) | 2.63 | 2.59 | not a hit in A549 | not a hit in 1833 | inactive |
